No constants are given. Whether binding was seen depends on the method and setting. Some entries that bind do so weakly or less than the wild type.
Target: T1, Cdc4 (yeast F-box protein, recombinant, expressed in baculovirus-infected insect cells) (yeast) (UniProt P07834)
T1 sequence (looked up): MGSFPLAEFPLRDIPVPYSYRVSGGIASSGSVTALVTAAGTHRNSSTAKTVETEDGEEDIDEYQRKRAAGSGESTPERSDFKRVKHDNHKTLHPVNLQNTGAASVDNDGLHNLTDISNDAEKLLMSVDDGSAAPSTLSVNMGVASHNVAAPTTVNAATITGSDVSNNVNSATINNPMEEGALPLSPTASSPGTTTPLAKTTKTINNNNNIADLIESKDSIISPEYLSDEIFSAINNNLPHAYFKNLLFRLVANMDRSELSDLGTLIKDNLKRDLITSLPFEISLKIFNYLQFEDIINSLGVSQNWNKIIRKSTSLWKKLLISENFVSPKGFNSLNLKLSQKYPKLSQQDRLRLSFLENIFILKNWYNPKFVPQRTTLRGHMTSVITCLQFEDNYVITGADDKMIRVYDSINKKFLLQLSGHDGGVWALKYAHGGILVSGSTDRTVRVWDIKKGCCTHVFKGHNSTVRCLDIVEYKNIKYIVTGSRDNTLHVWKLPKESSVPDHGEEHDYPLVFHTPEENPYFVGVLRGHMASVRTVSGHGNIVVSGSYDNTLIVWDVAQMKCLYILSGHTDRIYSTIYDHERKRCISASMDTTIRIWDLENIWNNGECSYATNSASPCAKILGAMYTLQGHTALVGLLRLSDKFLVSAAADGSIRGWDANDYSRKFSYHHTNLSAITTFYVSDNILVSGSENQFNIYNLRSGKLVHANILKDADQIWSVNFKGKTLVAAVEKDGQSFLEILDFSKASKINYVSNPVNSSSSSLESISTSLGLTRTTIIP
Test: capture of phosphorylated Gst-Sic1 on Cdc4^FLAG resin, anti-Sic1 blot

The chains behind the UniProt entries cited, without tags or fusion partners. Where a name states a change or a piece, a line headed by the entry shows the natural chain unless it says otherwise.
UniProt P38634: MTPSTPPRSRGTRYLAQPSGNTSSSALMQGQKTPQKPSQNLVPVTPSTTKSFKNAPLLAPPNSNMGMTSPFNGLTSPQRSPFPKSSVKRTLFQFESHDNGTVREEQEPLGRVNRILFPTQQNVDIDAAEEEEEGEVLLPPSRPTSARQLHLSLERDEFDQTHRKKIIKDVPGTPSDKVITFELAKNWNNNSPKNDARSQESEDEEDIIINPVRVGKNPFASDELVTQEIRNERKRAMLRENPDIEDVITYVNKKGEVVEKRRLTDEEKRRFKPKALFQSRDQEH

binding: binds
Substance: Sic1 4m (Sic1^9m with T2, T5, T33, T45 and S76 restored), Gst fusion (from UniProt P38634 1-284)

Reference: patent US20040072319A1, “Molecules that modulate ubiquintin-dependent proteolysis and methods for identifying same” (priority 2003, published 2004)
